According to paper PMC8561924:
No constants are given. Whether binding was seen depends on the method and setting. Binding seen in cells or lysates may run through a third protein. Some binding calls cover weakened binding; strength is not graded here.

Amino acid sequences for entries named in this document (tags omitted).
UniProt Q03135: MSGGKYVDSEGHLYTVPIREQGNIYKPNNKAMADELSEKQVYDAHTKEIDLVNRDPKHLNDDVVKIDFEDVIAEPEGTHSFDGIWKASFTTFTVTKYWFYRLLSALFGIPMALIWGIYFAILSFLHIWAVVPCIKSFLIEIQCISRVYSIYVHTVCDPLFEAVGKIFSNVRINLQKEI

Columns and labels:
[1] = biological target: T1, Phospholipase C delta 1 (PLCD1), endogenous (human (endogenous in H1703, H358, 293T)) (UniProt P51178); experiment: co-IP; PLCD1 IP from H358 cells transfected with empty vector or a plasmid encoding DLC1 848–1091; Fig. 2E
T1 sequence: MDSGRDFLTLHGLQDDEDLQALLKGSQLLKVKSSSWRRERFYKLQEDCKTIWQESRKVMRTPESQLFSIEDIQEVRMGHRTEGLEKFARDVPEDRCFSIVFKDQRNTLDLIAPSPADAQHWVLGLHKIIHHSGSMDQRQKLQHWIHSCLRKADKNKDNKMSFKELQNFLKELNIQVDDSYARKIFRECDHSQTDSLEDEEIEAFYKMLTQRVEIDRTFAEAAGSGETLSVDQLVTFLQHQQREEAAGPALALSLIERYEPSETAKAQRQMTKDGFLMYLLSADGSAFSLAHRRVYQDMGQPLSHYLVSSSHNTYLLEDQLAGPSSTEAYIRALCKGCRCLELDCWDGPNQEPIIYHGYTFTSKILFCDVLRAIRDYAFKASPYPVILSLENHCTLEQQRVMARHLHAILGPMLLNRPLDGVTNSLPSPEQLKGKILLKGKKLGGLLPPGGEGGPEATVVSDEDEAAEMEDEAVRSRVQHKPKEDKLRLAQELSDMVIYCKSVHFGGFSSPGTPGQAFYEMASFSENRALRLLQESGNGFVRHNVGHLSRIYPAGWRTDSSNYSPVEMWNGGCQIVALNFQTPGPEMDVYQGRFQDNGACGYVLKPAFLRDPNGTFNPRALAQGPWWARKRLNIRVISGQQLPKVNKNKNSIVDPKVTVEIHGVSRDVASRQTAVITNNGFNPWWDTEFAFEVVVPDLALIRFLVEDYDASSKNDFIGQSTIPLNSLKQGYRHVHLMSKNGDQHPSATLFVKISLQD

[2] = biological target: T1, Phospholipase C delta 1 (PLCD1), endogenous (human (endogenous in H1703, H358, 293T)); experiment: co-IP; IP with PLCD1 or Caveolin-1 antibodies from H358 (DLC1-negative) cells transfected with empty vector or pCDNA DLC1; Fig. 2D
[3] = biological target: T1, Phospholipase C delta 1 (PLCD1), endogenous (human (endogenous in H1703, H358, 293T)); experiment: co-IP; Caveolin-1 IP from H1703 cells transfected with GFP or GFP-DLC1 848–1091; Fig. 2F
[4] = biological target: T1, Phospholipase C delta 1 (PLCD1), endogenous (human (endogenous in H1703, H358, 293T)); experiment: co-IP; endogenous PLCD1, DLC1 and Caveolin-1 in H1703 cell lysate (1X RIPA buffer); Fig. 1A

Measured: binding

Caveolin-1, endogenous (from UniProt Q03135 1-178)
binds: all assays above
